Measurements: PubChem BioAssay AID651768 (National Center for Advancing Translational Sciences (NCATS), 2012)
The campaign covered roughly 360,000 compounds. About 1,700 (0.47%) were called active. This list was built around the results that the source calls inconclusive (neither active nor inactive); the mix of calls is not that of the screen. The call rests on the fitted dose curve; in most records, active means well fitted inhibition curve with a large enough effect; inconclusive means small, poorly fitted or top-dose-only effect; inactive means no such curve, though single readings can be large or run the other way. Potencies beside an inconclusive call are fits to weak or partial responses and may not hold up.

By UniProt entry, the sequences of proteins in these tests, tags left out.
UniProt Q14191, whole entry, looked up: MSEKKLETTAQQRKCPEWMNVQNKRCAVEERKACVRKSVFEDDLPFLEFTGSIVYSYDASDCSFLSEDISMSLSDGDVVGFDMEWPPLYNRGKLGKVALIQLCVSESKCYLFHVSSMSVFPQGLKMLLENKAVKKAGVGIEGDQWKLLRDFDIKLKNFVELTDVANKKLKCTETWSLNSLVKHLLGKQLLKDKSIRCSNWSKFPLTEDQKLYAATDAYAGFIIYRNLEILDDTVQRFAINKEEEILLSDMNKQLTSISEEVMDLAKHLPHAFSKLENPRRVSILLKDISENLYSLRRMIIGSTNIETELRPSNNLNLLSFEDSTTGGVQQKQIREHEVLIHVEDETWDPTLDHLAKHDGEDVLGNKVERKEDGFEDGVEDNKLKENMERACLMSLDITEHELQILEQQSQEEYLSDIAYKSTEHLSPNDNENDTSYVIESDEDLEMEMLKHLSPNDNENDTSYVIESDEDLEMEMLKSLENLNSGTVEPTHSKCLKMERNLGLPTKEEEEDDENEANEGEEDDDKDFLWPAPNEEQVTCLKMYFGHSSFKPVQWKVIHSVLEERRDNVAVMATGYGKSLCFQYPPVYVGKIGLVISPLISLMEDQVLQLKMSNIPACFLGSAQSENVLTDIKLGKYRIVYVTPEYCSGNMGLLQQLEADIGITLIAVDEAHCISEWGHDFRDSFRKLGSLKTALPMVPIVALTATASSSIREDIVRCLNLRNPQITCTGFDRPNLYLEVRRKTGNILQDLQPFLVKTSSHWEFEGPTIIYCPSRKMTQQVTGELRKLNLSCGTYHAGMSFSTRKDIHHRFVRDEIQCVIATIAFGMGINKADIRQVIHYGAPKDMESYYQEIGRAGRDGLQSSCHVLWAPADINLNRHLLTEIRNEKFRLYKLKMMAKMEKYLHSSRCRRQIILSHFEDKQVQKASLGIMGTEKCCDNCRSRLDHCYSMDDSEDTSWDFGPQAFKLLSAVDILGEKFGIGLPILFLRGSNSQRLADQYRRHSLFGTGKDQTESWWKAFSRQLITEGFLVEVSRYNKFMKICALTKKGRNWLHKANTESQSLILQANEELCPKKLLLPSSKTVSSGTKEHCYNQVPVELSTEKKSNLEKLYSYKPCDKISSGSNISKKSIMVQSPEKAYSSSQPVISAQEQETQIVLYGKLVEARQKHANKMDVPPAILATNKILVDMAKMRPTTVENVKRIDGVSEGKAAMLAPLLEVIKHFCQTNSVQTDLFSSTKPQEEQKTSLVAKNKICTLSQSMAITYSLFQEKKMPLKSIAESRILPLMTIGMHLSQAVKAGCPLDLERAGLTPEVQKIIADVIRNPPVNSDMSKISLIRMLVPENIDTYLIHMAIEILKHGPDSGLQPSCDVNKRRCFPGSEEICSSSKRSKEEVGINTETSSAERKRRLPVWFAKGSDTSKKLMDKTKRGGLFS

target: Bifunctional 3'-5' exonuclease/ATP-dependent helicase WRN (Homo sapiens) (UniProt Q14191); assay: qHTS for Inhibitors of WRN Helicase; conditions: WRN helicase unwinding, fluorescent forked duplex, kinetic; activity change, negative = inhibition: at 114 µM (top of the series) unless noted; further: nearly all actives have a fitted effect of over 55% in size
How it was run: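 Screening of the MLSMR collection measured strand separation of a quenched forked DNA duplex (100 nM) by 20 nM WRN with 2 mM ATP, all final. Compounds were preincubated with enzyme 15 min at room temperature.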
On the % scale 0 is the no-effect control and ±100 the full control effect; potency means the concentration at half of the fitted maximal effect.

| SMILES | Potency | activity change, negative = inhibition |
| --- | --- | --- |
| COCCN1C(=O)/C(=C/c2ccc(OCc3ccc(C(=O)O)cc3)c(OC)c2)SC1=Nc1ccccc1 | inconclusive: 79.4 µM [inhibitor, partial curve] | – |
| COc1cc2nc(Nc3ccc(C)c(C)c3)nc(N)c2cc1OC | inconclusive: 56.2 µM [inhibitor, partial curve] | – |
| O=Nc1nc2ncccn2c1-c1ccccc1 | inconclusive: 20 µM [inhibitor, partial curve] | – |
| CC(=O)c1ccc(NC(=S)NNC(=O)NC2CCCCC2)cc1 | inconclusive: 89.1 µM [inhibitor, single point] | – |
| CCOc1cc(/C=C2\SC(=N)N(c3nonc3N)C2=O)ccc1OCC(N)=O | inconclusive: 89.1 µM [inhibitor, partial curve, poor fit] | – |
| O=C1C=C(c2ccc(C(=O)O)cc2)C[C@@H](c2ccc3c(c2)OCO3)C1 | – | inactive: -0.998% [at 11.6 µM] |
| CC(C)=NOc1nc(N(C)C)nc(N2CCOCC2)n1 | inactive | – |
| CN1c2ccccc2C(C)(C)C12C=Nc1c(ccc3ccccc13)O2 (stereo unspecified) | inconclusive: 56.2 µM [inhibitor, partial curve] | – |
| CCc1ccc2nc3sc(C(=O)Nc4nnc(CC)s4)c(N)c3cc2c1 | active: 22.4 µM | – |
| Cc1noc(C)c1CN1C(=O)c2cccc([N+](=O)[O-])c2C1=O | inconclusive: 89.1 µM [inhibitor, single point] | – |
| COc1ccc(-n2nnnc2S(=O)(=O)Cc2ccc(C(=O)O)cc2)cc1 | inconclusive: 39.8 µM [inhibitor, partial curve] | – |
| O=C(c1ccccc1NS(=O)(=O)c1ccc([N+](=O)[O-])cc1[N+](=O)[O-])N1O[C@@H]2C=C[C@H]1C2 | inconclusive: 50.1 µM [inhibitor, partial curve] | – |
| S=c1[nH]nc(-c2ccc(Cl)cc2)n1/N=C/C=C/c1ccco1 | inactive | – |
| O=S(=O)(Nc1nc2ccccc2nc1NCc1ccco1)c1ccc(Cl)cc1 | inactive | – |
| COc1cc(/C=C2\SC(=S)N(NC(=O)c3ccc(O)cc3)C2=O)ccc1O | active: 28.2 µM | – |
| C=CCn1c(COc2ccccc2)nnc1SC(C)C(=O)N/N=C/c1cc(Cl)ccc1O (stereo unspecified) | inactive | – |
| COc1cc(/C=C(/C#N)C(=O)Nc2ccccc2)c(Br)cc1OCc1ccc(C(=O)O)cc1 | inconclusive: 79.4 µM [inhibitor, partial curve] | – |
| CCCc1nn2c(=O)c(C(c3cccc(Cl)c3)c3c(O)nc4sc(CCC)nn4c3=O)c(O)nc2s1 | inconclusive: 31.6 µM [inhibitor, partial curve] | – |
| COc1ccc(NC(=O)CNC(=O)c2ccco2)cc1 | inconclusive: 10 µM [inhibitor, full curve, poor fit] | – |
| Cc1cc(Br)ccc1NC(=O)C1CCN(S(=O)(=O)c2cnc[nH]2)CC1 | inactive | – |
| O=C1OC(c2ccccc2)=N/C1=C\C=C\c1ccco1 | inactive | – |
| NC(=S)c1ccc[n+]([O-])c1 | inconclusive: 56.2 µM [inhibitor, partial curve] | – |

| SMILES | Potency | activity change, negative = inhibition |
| --- | --- | --- |
| NC(=O)CNC(=O)c1ccc(Cl)cc1 | inconclusive: 12.6 µM [inhibitor, full curve, poor fit] | – |
| COc1cccc(-c2nn3c(-c4ccccn4)nnc3s2)c1 | inactive | – |
| COc1ccc(-c2ccc3c(=O)cc(-c4ccsc4)oc3c2)cn1 | active: 50.1 µM | – |
| N=C1C2=C3Sc4ccccc4N3CCCC2=NN1c1cccc(S(=O)(=O)O)c1 | inconclusive: 50.1 µM [inhibitor, partial curve] | – |
| O=C1/C(=C\c2ccc(O)cc2)CCC1CNc1ccc(Cl)cc1 (stereo unspecified) | inconclusive: 50.1 µM [inhibitor, partial curve] | – |
| CC(C)Oc1cccc(C(=O)C2CCCN(C(=O)CCc3cnn(C)c3)C2)c1 (stereo unspecified) | inconclusive: 89.1 µM [inhibitor, single point] | – |
| C#CCOCCOCCOCCNc1nc(N2CCN(C(=O)CCCCCCCCCCNC(=O)[C@@H]([C@H](C)O)n3cc(C)nn3)CC2)nc(N2CCN(C(=O)CCCCCCCCCCNC(=O)[C@@H]([C@H](C)O)n3cc(C)nn3)CC2)n1 | inactive | – |
| COc1cc(CCC(=O)N2CCN(S(=O)(=O)c3ccc(C)cc3)CC2)cc(OC)c1OC | inconclusive: 44.7 µM [inhibitor, partial curve] | – |
| COc1ccccc1-c1nnc2sc(-c3cnccn3)nn12 | inconclusive: 56.2 µM [inhibitor, partial curve] | – |
| O=C(COc1ccc2ccccc2c1)NNC(=O)c1ccc([N+](=O)[O-])cc1 | inactive | – |
| CC(=O)c1sc2nc(-c3ccco3)ccc2c1N | inconclusive: 35.5 µM [inhibitor, partial curve] | – |
| CCOC(=O)c1[nH]c2ccc(OC)cc2c1NC(=S)N1CCN(c2cccc(C)c2C)CC1 | inconclusive: 39.8 µM [inhibitor, single point] | – |
| COc1ccc(CCNC(=O)c2ccc(OCC(=O)N3CCOCC3)c(OC)c2)cc1OC | inconclusive: 89.1 µM [inhibitor, single point] | – |
| CCC(NC(=O)c1ccccc1NC(=O)c1ccco1)C(=O)NNC(=O)c1ccc(OC)cc1 (stereo unspecified) | inconclusive: 100 µM [inhibitor, partial curve] | – |
| CC1=NN(c2ccc(Cl)cc2)C(=O)C1C(c1cccc(O)c1)c1c(C)[nH]n(-c2ccc(Cl)cc2)c1=O (stereo unspecified) | inconclusive: 50.1 µM [inhibitor, partial curve] | – |
| CCn1c(SCc2ccc(C#N)cc2)nnc1-c1cccc(Cl)c1 | inactive | – |
| O=C(O)CCCN1C(=O)/C(=C\c2ccccc2OCc2ccccc2)SC1=S | inconclusive: 50.1 µM [inhibitor, partial curve] | – |
| Cc1ccc(C(=O)c2coc3cc([N+](=O)[O-])c(O)c([N+](=O)[O-])c23)cc1 | inconclusive: 44.7 µM [inhibitor, partial curve] | – |
| C=CCn1c(SCC(=O)N2CCOCC2)nc2scc(-c3ccco3)c2c1=O | active: 56.2 µM | – |
| O=C(CCCn1c(SCC(=O)c2ccc(O)c(O)c2)nc2ccccc2c1=O)NCC1CCCO1 (stereo unspecified) | active: 22.4 µM | – |
| O=C1Nc2ccc(Br)cc2C1=Nc1cccnc1 | inactive | – |
| COc1cccc(-c2cnc3c(NC(C)=O)cc(-c4cccc(C(=O)NCCN(C)C)c4)cn23)c1 | inconclusive: 35.5 µM [inhibitor, single point] | – |

| SMILES | Potency | activity change, negative = inhibition |
| --- | --- | --- |
| O=[N+]([O-])c1cccc(S(=O)(=O)Nc2ccc(S(=O)(=O)Nc3nccs3)cc2)c1 | inconclusive: 79.4 µM [inhibitor, single point] | – |
| COc1ccc(C2=NN(C(=O)CCCC(=O)O)C(c3cn(-c4ccccc4)nc3-c3ccccc3)C2)cc1 (stereo unspecified) | active: 0.299 µM | – |
| C=CCNC(=O)CSc1nc2cc(C(=O)OCC)ccc2n1CC | inactive | – |
| CCN(CC)CCN(C(=O)c1ccc2c(c1)CCCC2)c1nc2ccc(C)cc2s1 | inconclusive: 31.6 µM [inhibitor, full curve, poor fit] | – |
| COc1ccc(OC)c([N+](=O)[O-])c1C(N)=O | inconclusive: 39.8 µM [inhibitor, full curve, poor fit] | – |
| CN(C)c1ccc(/C=C(\C#N)C(=O)c2ccccc2)cc1 | inconclusive: 89.1 µM [inhibitor, single point] | – |
| Cc1ccc(Cc2cnc(N)s2)o1 | active: 44.7 µM | – |
| Cc1ccc(NS(=O)(=O)c2ccc(/C=C/C(=O)O)cc2)cc1Cl | inactive | – |
| CC(C)(C)c1cc(-c2csc(Nc3ccccc3)[n+]2Cc2ccc(C(=O)O)cc2)cc(C(C)(C)C)c1O | inconclusive: 50.1 µM [inhibitor, partial curve] | – |
| COc1cc(C(=O)N/N=C/c2ccc(OC(=O)c3ccccc3Cl)c(OC)c2)ccc1O | inconclusive: 89.1 µM [inhibitor, single point] | – |
| O=C(Nc1ccc(Cl)cc1)c1ccc2snnc2c1 | inactive | – |
| O=C1/C(=C/c2ccco2)SC(=S)N1CCC(=O)N1CCCCC1CCO (stereo unspecified) | active: 56.2 µM | – |
| Cc1ccccc1CSCC(=O)NC(=O)NCc1ccco1 | inconclusive: 56.2 µM [inhibitor, partial curve] | – |
| Cc1ccc(NC(=O)Cn2nnc(-c3ccc4c(c3)OCO4)n2)cc1F | inconclusive: 89.1 µM [inhibitor, single point] | – |
| Cc1[nH]n(-c2ccccc2)c(=O)c1N=Nc1ccc(C(N)=O)cc1 | inconclusive: 10 µM [inhibitor, full curve, poor fit] | – |
| N#CC1=C(N)Oc2c(sc3ccccc23)C1c1ccco1 (stereo unspecified) | inconclusive: 56.2 µM [inhibitor, partial curve] | – |
| CCOc1ccc(CCNC(=O)COC(=O)c2cccs2)cc1OCC | inconclusive: 20 µM [inhibitor, full curve, poor fit] | – |
| O=C(Nc1cccc(S(=O)(=O)NC2=NCCCCC2)c1)c1cc(-c2ccco2)nc2ccccc12 | inconclusive: 56.2 µM [inhibitor, partial curve] | – |
| CC1(CC(=O)N/N=C/c2cc([N+](=O)[O-])c(O)cc2O)OCCO1 | inconclusive: 15 µM [inhibitor, partial curve] | – |
| Cc1cc(NS(=O)(=O)c2ccc(NC(=O)c3cc4c(=O)n5ccccc5nc4s3)cc2)nc(C)n1 | inconclusive: 18.9 µM [inhibitor, partial curve] | – |
| COc1cccc(/C=N/NC(=O)c2cc(-c3cccn3C)n[nH]2)c1O | inconclusive: 79.4 µM [inhibitor, partial curve] | – |
| COc1cc(Cl)cc(/C=C/c2ccc3ccccc3n2)c1OC(C)=O | inconclusive: 39.8 µM [inhibitor, single point] | – |

Shown bar-delimited: entries from further up
SMILES | Potency | activity change, negative = inhibition
Cc1cc(Br)ccc1NC(=O)C1CCN(S(=O)(=O)c2cnc[nH]2)CC1 | inactive | –
COc1ccccc1-c1nnc2sc(-c3cnccn3)nn12 | inconclusive: 56.2 µM [inhibitor, partial curve] | –
O=C(CCCn1c(SCC(=O)c2ccc(O)c(O)c2)nc2ccccc2c1=O)NCC1CCCO1 (stereo unspecified) | active: 22.4 µM | –
O=[N+]([O-])c1cccc(S(=O)(=O)Nc2ccc(S(=O)(=O)Nc3nccs3)cc2)c1 | inconclusive: 79.4 µM [inhibitor, single point] | –
